The other results are listed elsewhere or left out.
Compound: Cc1cc(ccc1-c1ccccc1)C(=O)N1CCCN(CC1)C(=O)CCl [compound 10]
Assay: probe-labelled cysteine peptide fold change vs DMSO (competition) (log2 fold change); higher = less target engagement (more negative = stronger competition)
Conditions: THP-1, incubation time: 4 h
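Further: competitive profiling in live THP-1 cells: cysteine peptides tagged with an iodoacetamide desthiobiotin (IA-DTB) probe, intensity after compound treatment relative to DMSO-treated cells.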

By UniProt entry, the sequences of proteins in these tests, tags left out. Where a name states a change or a piece, a line headed by the entry shows the natural chain unless it says otherwise.
UniProt Q15042: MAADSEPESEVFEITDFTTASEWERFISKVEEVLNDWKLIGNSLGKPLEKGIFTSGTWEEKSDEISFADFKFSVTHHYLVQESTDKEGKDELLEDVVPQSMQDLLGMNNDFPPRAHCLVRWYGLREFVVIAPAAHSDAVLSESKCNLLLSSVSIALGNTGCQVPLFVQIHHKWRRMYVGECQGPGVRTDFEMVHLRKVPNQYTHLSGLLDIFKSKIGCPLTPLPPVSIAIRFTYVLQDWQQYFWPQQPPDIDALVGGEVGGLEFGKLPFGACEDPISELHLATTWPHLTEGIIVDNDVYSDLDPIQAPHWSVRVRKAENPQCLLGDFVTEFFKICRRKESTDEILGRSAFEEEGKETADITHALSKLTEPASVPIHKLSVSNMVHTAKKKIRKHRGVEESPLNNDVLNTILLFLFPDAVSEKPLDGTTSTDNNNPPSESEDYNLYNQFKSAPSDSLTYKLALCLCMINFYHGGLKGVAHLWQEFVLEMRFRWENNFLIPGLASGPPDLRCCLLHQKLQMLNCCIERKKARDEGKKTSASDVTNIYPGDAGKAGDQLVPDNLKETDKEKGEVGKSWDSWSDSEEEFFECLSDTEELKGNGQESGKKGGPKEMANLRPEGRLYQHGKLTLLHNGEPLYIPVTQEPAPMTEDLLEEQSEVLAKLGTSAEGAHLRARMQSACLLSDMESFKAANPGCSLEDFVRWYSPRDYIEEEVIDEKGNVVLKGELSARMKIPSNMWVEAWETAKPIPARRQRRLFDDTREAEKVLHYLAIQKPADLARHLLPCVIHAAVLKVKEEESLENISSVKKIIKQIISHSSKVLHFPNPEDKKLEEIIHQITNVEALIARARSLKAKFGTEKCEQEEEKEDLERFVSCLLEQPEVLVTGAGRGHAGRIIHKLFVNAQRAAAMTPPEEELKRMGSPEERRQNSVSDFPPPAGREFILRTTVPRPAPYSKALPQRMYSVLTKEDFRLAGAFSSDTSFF
UniProt P49023, whole entry, looked up: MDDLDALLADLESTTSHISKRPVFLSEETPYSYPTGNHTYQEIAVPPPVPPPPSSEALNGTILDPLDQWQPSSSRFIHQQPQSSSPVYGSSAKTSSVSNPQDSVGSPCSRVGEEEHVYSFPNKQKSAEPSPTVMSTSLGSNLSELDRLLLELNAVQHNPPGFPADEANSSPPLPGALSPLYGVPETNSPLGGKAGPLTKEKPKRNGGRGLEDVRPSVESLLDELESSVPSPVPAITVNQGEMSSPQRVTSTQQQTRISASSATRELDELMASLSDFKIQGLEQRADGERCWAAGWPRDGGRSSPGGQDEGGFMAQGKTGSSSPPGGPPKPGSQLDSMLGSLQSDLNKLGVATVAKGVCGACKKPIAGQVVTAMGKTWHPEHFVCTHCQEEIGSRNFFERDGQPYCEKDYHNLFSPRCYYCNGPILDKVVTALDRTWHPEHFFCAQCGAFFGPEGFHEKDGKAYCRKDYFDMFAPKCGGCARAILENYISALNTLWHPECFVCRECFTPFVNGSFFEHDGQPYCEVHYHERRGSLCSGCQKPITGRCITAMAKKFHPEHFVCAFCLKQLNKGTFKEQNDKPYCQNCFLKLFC
UniProt Q9NS91, whole entry: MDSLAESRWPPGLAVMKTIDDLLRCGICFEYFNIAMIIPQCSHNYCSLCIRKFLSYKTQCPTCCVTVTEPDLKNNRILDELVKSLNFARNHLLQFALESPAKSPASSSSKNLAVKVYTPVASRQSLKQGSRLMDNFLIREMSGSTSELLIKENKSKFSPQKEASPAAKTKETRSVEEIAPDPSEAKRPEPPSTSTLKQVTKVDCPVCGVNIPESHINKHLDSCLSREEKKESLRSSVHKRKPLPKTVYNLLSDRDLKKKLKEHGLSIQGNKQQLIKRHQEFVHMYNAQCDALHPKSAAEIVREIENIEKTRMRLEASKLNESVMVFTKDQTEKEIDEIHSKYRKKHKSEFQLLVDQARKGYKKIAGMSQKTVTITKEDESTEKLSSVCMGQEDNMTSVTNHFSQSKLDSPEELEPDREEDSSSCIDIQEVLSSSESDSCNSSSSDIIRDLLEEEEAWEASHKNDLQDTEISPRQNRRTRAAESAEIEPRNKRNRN
UniProt Q15276: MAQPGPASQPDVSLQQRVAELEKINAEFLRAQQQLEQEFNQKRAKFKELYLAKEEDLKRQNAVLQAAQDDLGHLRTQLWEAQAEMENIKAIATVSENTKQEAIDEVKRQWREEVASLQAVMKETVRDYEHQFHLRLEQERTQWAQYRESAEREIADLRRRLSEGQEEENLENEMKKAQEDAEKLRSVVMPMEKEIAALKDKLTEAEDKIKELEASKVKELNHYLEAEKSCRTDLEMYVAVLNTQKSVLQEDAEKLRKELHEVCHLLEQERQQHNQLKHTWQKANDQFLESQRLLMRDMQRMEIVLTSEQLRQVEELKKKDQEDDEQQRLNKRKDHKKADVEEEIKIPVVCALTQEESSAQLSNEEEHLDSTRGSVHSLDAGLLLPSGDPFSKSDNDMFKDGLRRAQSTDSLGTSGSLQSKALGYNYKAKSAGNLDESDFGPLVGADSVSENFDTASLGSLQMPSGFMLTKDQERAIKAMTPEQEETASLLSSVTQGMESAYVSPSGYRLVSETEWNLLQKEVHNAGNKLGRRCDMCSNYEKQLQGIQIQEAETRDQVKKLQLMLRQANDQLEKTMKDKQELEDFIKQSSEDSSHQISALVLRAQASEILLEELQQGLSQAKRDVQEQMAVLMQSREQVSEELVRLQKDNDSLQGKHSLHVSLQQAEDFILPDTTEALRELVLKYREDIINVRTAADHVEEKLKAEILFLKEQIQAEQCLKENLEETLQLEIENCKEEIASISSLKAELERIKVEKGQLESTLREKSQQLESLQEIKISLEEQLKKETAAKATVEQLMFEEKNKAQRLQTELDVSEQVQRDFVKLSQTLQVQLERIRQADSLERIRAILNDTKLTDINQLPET
UniProt P61106, whole entry, looked up: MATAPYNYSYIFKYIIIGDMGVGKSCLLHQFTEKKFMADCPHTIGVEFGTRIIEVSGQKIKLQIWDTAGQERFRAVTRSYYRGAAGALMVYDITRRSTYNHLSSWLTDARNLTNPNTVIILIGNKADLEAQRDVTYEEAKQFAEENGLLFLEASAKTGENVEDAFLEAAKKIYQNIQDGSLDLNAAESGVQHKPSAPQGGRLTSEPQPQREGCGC
UniProt Q9Y3P9: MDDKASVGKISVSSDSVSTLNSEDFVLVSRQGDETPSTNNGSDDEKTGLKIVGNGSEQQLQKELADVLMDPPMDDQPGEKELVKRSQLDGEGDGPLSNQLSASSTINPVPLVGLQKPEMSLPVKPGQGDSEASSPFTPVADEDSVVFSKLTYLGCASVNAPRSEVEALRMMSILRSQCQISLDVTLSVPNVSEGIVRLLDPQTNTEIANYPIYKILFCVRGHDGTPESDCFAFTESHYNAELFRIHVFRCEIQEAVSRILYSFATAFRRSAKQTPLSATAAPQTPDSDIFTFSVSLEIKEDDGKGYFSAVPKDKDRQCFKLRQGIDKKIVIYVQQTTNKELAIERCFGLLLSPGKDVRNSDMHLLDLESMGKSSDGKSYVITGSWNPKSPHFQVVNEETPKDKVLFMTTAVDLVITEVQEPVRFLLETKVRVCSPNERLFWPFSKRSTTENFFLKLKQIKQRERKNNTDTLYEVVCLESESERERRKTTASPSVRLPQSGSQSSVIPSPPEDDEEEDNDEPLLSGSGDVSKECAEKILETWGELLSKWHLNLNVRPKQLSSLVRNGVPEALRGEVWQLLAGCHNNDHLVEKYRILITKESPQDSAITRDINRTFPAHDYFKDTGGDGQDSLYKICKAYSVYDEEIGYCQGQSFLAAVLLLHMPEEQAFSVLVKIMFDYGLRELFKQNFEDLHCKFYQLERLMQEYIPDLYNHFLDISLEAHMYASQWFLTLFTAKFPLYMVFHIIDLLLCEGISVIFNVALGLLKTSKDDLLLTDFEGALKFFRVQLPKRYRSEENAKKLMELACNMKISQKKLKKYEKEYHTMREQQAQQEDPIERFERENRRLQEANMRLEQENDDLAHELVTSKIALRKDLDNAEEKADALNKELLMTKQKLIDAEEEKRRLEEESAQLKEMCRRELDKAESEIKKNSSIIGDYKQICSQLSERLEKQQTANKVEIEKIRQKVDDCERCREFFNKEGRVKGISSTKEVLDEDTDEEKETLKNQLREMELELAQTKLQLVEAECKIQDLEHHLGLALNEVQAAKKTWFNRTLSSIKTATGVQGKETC
UniProt Q9Y4B4: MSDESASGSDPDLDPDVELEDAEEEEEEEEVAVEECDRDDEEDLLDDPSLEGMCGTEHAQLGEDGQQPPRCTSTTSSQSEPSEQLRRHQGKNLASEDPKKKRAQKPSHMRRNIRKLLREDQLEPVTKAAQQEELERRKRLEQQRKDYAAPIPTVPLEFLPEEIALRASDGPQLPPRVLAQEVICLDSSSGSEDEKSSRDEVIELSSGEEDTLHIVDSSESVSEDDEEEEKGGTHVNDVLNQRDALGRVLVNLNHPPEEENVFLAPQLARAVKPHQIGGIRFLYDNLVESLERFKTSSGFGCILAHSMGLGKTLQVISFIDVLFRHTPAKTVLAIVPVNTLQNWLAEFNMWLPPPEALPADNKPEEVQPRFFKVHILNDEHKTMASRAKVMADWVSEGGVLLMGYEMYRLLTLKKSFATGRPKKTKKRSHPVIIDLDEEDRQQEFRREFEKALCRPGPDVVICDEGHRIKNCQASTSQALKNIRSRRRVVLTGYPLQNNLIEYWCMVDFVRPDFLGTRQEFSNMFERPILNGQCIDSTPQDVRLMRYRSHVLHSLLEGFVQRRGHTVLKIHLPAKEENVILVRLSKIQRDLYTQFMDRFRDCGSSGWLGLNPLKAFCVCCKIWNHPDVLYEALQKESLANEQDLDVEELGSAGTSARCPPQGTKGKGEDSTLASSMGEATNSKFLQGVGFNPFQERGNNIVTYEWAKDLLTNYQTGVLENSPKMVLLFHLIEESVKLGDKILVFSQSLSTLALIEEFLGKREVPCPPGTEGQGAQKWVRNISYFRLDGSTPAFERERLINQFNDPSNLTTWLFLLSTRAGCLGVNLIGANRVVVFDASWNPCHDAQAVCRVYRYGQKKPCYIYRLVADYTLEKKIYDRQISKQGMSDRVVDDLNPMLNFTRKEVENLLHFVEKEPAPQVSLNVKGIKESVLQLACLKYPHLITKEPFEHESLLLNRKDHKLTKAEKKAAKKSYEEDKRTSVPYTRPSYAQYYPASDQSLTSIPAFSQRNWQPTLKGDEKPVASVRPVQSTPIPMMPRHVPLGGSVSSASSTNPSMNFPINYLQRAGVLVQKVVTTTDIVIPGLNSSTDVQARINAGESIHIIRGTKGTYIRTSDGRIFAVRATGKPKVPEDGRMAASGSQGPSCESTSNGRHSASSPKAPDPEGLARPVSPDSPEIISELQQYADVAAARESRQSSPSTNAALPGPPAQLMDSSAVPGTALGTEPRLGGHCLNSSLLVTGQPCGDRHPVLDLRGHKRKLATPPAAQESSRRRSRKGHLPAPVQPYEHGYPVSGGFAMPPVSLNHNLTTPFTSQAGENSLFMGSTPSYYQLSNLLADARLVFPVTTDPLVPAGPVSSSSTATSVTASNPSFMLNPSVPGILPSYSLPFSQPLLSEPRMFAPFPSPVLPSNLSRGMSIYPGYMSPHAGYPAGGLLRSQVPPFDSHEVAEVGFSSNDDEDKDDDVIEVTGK

Row | Target | probe-labelled cysteine peptide fold change (10 µM) | probe-labelled cysteine peptide fold change (50 µM)
1 | RAB3GAP1_Q15042_783_HLLPCVIHAAVLK (UniProt Q15042) | 0.139 | -0.223
2 | RAD50_Q92878_48_TTIIECLK (UniProt Q92878) | 0.0101 | -0.0339
3 | PXN_P49023_108_TSSVSNPQDSVGSPCSR (UniProt P49023) | -0.282 | -0.571
4 | RAD18_Q9NS91_223_HLDSCLSR (UniProt Q9NS91) | -0.0378 | -0.0831
5 | RABEP1_Q15276_734_ENLEETLQLEIENCK (UniProt Q15276) | -0.102 | 0.0212
6 | RAB3GAP1_Q15042_693_AANPGCSLEDFVR (UniProt Q15042) | -0.0831 | 0.0258
7 | RACK1_P63244_249_HLYTLDGGDIINALCFSPNRYWLCAATGPSIK (UniProt P63244) | -0.203 | -0.584
8 | RAB14_P61106_26_SCLLHQFTEK (UniProt P61106) | 0.0348 | 0.0753
9 | RABGAP1_Q9Y3P9_433_VCSPNER (UniProt Q9Y3P9) | 0.301 | 0.299
10 | R3HCC1_Q9Y3T6_5_ALLCLDGVFLSSAENDFVHR (UniProt Q9Y3T6+R3HCC1) | 0.242 | 0.0812
11 | RAD54L2_Q9Y4B4_533_QEFSNMFERPILNGQCIDSTPQDVR (UniProt Q9Y4B4) | -0.116 | -0.125
12 | RABGAP1L_Q5R372_139_LTYLGCMK (UniProt Q5R372) | 0.0897 | 0.0332
13 | PWP1_Q13610_9_QVTCVAWVR (UniProt Q13610) | -0.0204 | -0.136
14 | RAB10_P61026_124_CDMDDK (UniProt P61026) | -0.104 | 0.0844

Quoted from the listing.
probe-labelled cysteine peptide fold change (10 µM) with PXN_P49023_108_TSSVSNPQDSVGSPCSR (UniProt P49023) is entered as -0.282
probe-labelled cysteine peptide fold change (10 µM) with RAD54L2_Q9Y4B4_533_QEFSNMFERPILNGQCIDSTPQDVR (UniProt Q9Y4B4) is entered as -0.116

From the supplement of paper PMC12067093, “Discovery and optimisation of a covalent ligand for TRIM25 and its application to targeted protein ubiquitination” (Chemical Science, 2025)
